Reference: PubChem BioAssay AID504791 (Drosophila RNAi Screening Center, 2011)

Test: 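Factors in Argonaute-based small RNA production and activity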 (primary screen)
System: Drosophila S2-derived reporter cells
Reagents: long dsRNA against Drosophila genes, about 150-250 ng dsRNA per well (siRNA assay); about 80-120 ng (miRNA assay)
Duration: about 5 days (siRNA assay); about 4 days (miRNA assay)
Treatment: copper sulfate induction of reporters: 25 µM (siRNA assay); 200 mM stated (miRNA assay), 1-2 days before reading
Read-out: 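Dual luciferase assay: Renilla to firefly signal ratio in each well, scaled to the mean ratio of its plate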
Rule for the call: 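a well was a first-pass pick when its plate-scaled ratio rose above 1.5 (siRNA assay) or 1.6 (miRNA assay), or dropped below 0.6; a gene counted only if two separate dsRNAs agreed on retest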
The deposit covers about 23,000 reagents; this is an unselected part of those with a known target gene and a result. Of all reagents, 199 (0.86%) were called active. 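Plate-scaled ratios behind the calls are not deposited; printed light signals are raw; many rows marked increased or decreased are still called inactive.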 A number with no mark means an inactive call. A plus sign joins genes that one reagent is predicted to hit. Not given: the direction of the score.

| gene | DRSC id | miRNA reporter change | stable assay Renilla, run 1 (luminescence) | stable assay firefly, run 1 (luminescence) |
| --- | --- | --- | --- | --- |
| RpS19b | DRSC15773 | – | 8693 | 4.36e5 |
| Ugt316A1 | DRSC10376 | – | 6216 | 3.54e5 |
| CG33998 | DRSC05747 | – | 6655 | 3.47e5 |
| CG9737 | DRSC16550 | – | 5974 | 4.89e5 |
| Rcd7 | DRSC10100 | – | 7166 | 3.51e5 |
| chas | DRSC19508 | – | 5290 | 4.44e5 |
| chas | DRSC19509 | – | 5475 | 4.33e5 |
| Obp58d | DRSC04162 | reporter ratio lowered past the hit cutoff | 7231 | 4.80e5 |
| Naprt | DRSC00630 | – | 11891 | 3.97e5 |
| CG33543 | DRSC00384 | – | 7534 | 4.17e5 |
| CG33543 | DRSC00385 | – | 7656 | 5.41e5 |
| CG4318 | DRSC19887 | – | 4872 | 3.61e5 |
| U3-55K | DRSC05982 | – | 5675 | 3.33e5 |
| CG4957 | DRSC02793 | – | 6782 | 4.10e5 |
| Catsup | DRSC03288 | – | 6668 | 4.71e5 |
| Kebab | DRSC00827 | – | 37634 | 1.41e6 |
| CG18530 | DRSC15341 | – | 6516 | 3.62e5 |
| ens | DRSC08454 | – | 7323 | 3.74e5 |
| erm | DRSC00700 | – | 13594 | 7.45e5 |
| CG11029 | DRSC02119 | – | 7562 | 3.75e5 |
| CG14280 | DRSC14761 | – | 8407 | 4.03e5 |
| CG12923 | DRSC06237 | – | 6612 | 4.81e5 |
| TBC1D16 | DRSC02841 | – | 7470 | 4.35e5 |
| CG5641 | DRSC15852 | – | 9490 | 5.30e5 |
| CG9281 | DRSC20179 | – | 7516 | 4.35e5 |
| pdgy | DRSC19064 | – | 4919 | 3.75e5 |
| pdgy | DRSC19341 | – | 7862 | 5.71e5 |
| unc-119 | DRSC18846 | – | 6234 | 3.70e5 |
| CG6051 | DRSC15956 | – | 6279 | 3.34e5 |
| CG12986 | DRSC19506 | – | 5523 | 4.34e5 |
| CG3038 | DRSC18618 | – | 5992 | 3.58e5 |
| CG15255 | DRSC01869 | – | 8639 | 3.52e5 |
| aurA | DRSC16905 | – | 6495 | 3.61e5 |
| Ephrin | DRSC17165 | – | 6183 | 3.00e5 |
| pbl | DRSC11381 | – | 7863 | 3.28e5 |
| Cyp6a8 | DRSC07384 | – | 8154 | 5.05e5 |
| CG6966 | DRSC16156 | – | 7506 | 3.48e5 |
| ranshi | DRSC16564 | – | 7099 | 4.13e5 |
| bnb | DRSC20314 | – | 6546 | 4.43e5 |
| Pif1A | DRSC12708 | – | 7195 | 3.95e5 |
| Pif1A | DRSC14383 | – | 6975 | 4.47e5 |
| Rbcn-3A | DRSC18314 | – | 6179 | 2.95e5 |
| insb | DRSC06995 | – | 6675 | 3.05e5 |
| Ccp84Aa | DRSC12586 | – | 7683 | 3.93e5 |
| bib | DRSC03496 | – | 37516 | 7.55e5 |
| p23 | DRSC15158 | – | 9839 | 5.49e5 |
| ETHR | DRSC15915 | – | 9150 | 4.60e5 |
| CG11601 | DRSC00318 | – | 7662 | 3.92e5 |
| Vm26Ac | DRSC02329 | – | 7590 | 4.80e5 |
| tctn + B9d2 | DRSC03160 | – | 9087 | 5.47e5 |
| Tango1 | DRSC02127 | – | 13816 | 8.00e5 |
| LManVI | DRSC03224 | – | 7306 | 4.31e5 |
| TrissinR | DRSC02334 | – | 8159 | 4.66e5 |
| TrissinR | DRSC02335 | – | 9694 | 4.22e5 |
| TrissinR | DRSC02336 | – | 9039 | 4.51e5 |
| CG5921 | DRSC17431 | – | 5344 | 3.98e5 |
| CG5921 | DRSC18390 | – | 5804 | 3.16e5 |
| CG12237 | DRSC19449 | – | 4111 | 4.03e5 |
| CG12237 | DRSC22256 | – | 10922 | 8.62e5 |
| oc | DRSC18808 | – | 5656 | 2.65e5 |
| MFS14 | DRSC06524 | – | 2603 | 3.24e5 |
| by | DRSC16482 | – | 6479 | 4.01e5 |
| CheB38c | DRSC02389 | – | 6710 | 4.78e5 |
| cg | DRSC07650 | – | 4919 | 2.20e5 |
| cg | DRSC23142 | – | 4020 | 3.10e5 |
| CG9630 | DRSC16527 | – | 7135 | 3.70e5 |
| CG9029 | DRSC03129 | – | 8006 | 4.21e5 |
| Spg7 | DRSC18469 | – | 5642 | 3.17e5 |
| SecS | DRSC12222 | – | 7216 | 4.14e5 |
| CG18262 | DRSC18149 | – | 7151 | 5.24e5 |
| RpS20 | DRSC16836 | – | 7216 | 4.46e5 |
| Eogt | DRSC00727 | – | 10496 | 5.69e5 |
| CG15533 | DRSC15069 | – | 7011 | 4.94e5 |
| CG12104 | DRSC08254 | – | 5812 | 2.69e5 |
| snsl | DRSC00543 | – | 7535 | 3.65e5 |
| CG9452 | DRSC11075 | – | 8351 | 3.41e5 |
| CG9452 | DRSC23344 | – | 3691 | 3.12e5 |
| osi | DRSC02931 | – | 6663 | 5.21e5 |
| Eaat2 | DRSC00032 | – | 5451 | 3.94e5 |
| Eaat2 | DRSC00749 | – | 18347 | 2.06e5 |
| Rcd4 | DRSC02597 | – | 7534 | 3.61e5 |
| Pp1-Y2 | DRSC21608 | – | 7743 | 3.98e5 |
| CG30222 | DRSC04125 | – | 6032 | 4.98e5 |
| CG30222 | DRSC04262 | – | 7018 | 4.60e5 |

Entries above whose gene name begins with U or u:
| gene | DRSC id | miRNA reporter change | stable assay Renilla, run 1 (luminescence) | stable assay firefly, run 1 (luminescence) |
| --- | --- | --- | --- | --- |
| Ugt316A1 | DRSC10376 | – | 6216 | 3.54e5 |
| U3-55K | DRSC05982 | – | 5675 | 3.33e5 |
| unc-119 | DRSC18846 | – | 6234 | 3.70e5 |
